# Library screen at single concentrations

Protein sequences, listed by entry. Tags and fused reporters are not part of them.
UniProt P9WNZ1, whole entry: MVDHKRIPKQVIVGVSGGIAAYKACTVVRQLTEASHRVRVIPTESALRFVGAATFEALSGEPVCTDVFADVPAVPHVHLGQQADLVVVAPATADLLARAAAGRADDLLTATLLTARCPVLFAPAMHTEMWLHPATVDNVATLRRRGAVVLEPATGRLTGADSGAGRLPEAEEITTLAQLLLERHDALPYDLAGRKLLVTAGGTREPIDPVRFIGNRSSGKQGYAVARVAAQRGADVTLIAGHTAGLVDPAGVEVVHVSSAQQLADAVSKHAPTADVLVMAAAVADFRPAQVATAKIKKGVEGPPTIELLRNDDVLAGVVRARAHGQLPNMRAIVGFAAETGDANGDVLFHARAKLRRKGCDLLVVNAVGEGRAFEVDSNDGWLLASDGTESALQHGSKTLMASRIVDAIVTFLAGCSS

Measurements from “University of Dundee, Small-Polar-MMV Screening Library” (2021), ChEMBL document CHEMBL3988442.

Toxoplasma: 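Assay of Toxoplasma gondii numbers, read through their beta-galactosidase reporter with a colour substrate. Tested at 10 µM. The record gives no direction; the compounds picked for IC50 retests had high values, so higher reads as fewer parasites. Of about 67,000 compounds tested this way, about 260 (0.38%) reached 50% or more in at least one test.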
CoaBC: 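Enzyme assay of CoaBC with a phosphate dye (Biomol Green) read at 650 nm. Target: Coenzyme A biosynthesis protein CoaBC, Mycobacterium tuberculosis (UniProt P9WNZ1). Compounds at 30 µM. Higher reads as stronger inhibition, judged from the few compounds that gave an IC50. Most strong results did not repeat in a second test. Size under these conditions: about 67,000 compounds, about 40 of them at 50% or above in at least one test.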

Each number is a percent effect as filed.
How 0% and 100% were set is not recorded. Most values in the screen are low, and negative values occur.
This is an unselected part of the compounds tested.

Result for Cc1ccc(-n2ccnc2)c(C(=O)NCCOCC2CCCO2)c1 (stereo not drawn) was Toxoplasma: -6.714%; CoaBC: -3.14%.
Result for CCCn1c(=O)n(CCC(=O)N(C)Cc2ccc(C)o2)c2ccccc21 was Toxoplasma: 5.847%; CoaBC: -0.1156%.
Result for CCOC(=O)NC(CNC(=O)c1cccnc1SC)CC(C)C (stereo not drawn) was Toxoplasma: 8.87%; CoaBC: -1.717%.
Result for CCCN1CCN(Cc2cc(Cl)cc(Cl)c2)[C@H]2CS(=O)(=O)C[C@H]21 was CoaBC: 19.12%.
Result for CCOC(=O)c1sc2ccsc2c1CNC(=O)CCOC was Toxoplasma: 12.66%; CoaBC: -2.117%.
Result for O=C([C@H]1C[C@@H]2CCN(C3CCOCC3)C[C@H]2O1)N1CCCC1 was CoaBC: 0%.
Result for Cc1c(Br)cccc1C(=O)NCC1CCCNC1 (stereo not drawn) was CoaBC: -4.114%.
Result for CC1(C(=O)NCCc2ccc(F)cc2)CCOCC1 was Toxoplasma: 10.23%; CoaBC: 2.632%.
Result for O=C(CC1CCCCC1)N1CCN(C(=O)NCc2ccccn2)CC1 was Toxoplasma: -6.556%; CoaBC: 3.333%.
Result for O=C(C1CCOCC1)N1C[C@@H]2C[C@@H](c3nc(C4CC4)cs3)O[C@@H]2C1 was CoaBC: -2.796%.
Result for [H][C@@]12CCN(C(=O)c3cccnc3OC)C[C@@]1([H])O[C@H](c1ccncn1)C2 was Toxoplasma: -8.917%.
Result for Cc1nccn1CC1CCCN1S(=O)(=O)Cc1ccc(F)cc1 (stereo not drawn) was Toxoplasma: -8.683%; CoaBC: -14.32%.
Result for CCS(=O)(=O)CCNC(=O)c1ccc(-c2ccc(C)cc2)cc1F was Toxoplasma: 10.25%; CoaBC: -8.636%.
Result for CCOCC(=O)NCC1CCN(Cc2ccsc2)CC1 was Toxoplasma: 17.03%; CoaBC: 2.768%.
Result for [H][C@@]12CS(=O)(=O)C[C@]1([H])N(Cc1ccc(F)cc1)CCN2C(=O)C1CCC1 was Toxoplasma: -6.932%.
Result for COCc1ncc(CN(Cc2ccco2)C(C)C(C)C)cn1 (stereo not drawn) was Toxoplasma: -4.638%; CoaBC: 5.725%.
Result for CCOCC1COCCC12CCN(C(=O)CCOC)CC2 (stereo not drawn) was Toxoplasma: -7.958%; CoaBC: 3.509%.
Result for COc1ccc(NC(=O)c2cccc(CN3CCCC3C)c2)cc1OC (stereo not drawn) was Toxoplasma: 4.085%; CoaBC: 9.054%.
Result for COC(C)c1cccc(NCc2ccsc2)c1 (stereo not drawn) was Toxoplasma: 3.056%; CoaBC: 6.695%.
Result for CNc1nc(CNC(=O)Nc2cccc(F)c2C)cs1 was Toxoplasma: -4.94%; CoaBC: -1.596%.
Result for COc1cc(C)c(CN2CCC3(CC2)[C@H](O)C[C@@H]3OCCN)cc1C was CoaBC: 0.123%.
Result for CN(C)C(C)(C)CNCc1cn(C)nc1-c1cccnc1.Cl was Toxoplasma: 6.889%.
Result for O=C(O)[C@@H]1CN(Cc2cc3c(cc2Cl)OCO3)C[C@H]1C1CC1 was Toxoplasma: 10.65%; CoaBC: 6.335%.
Result for CN(C)C(=O)COCC1CN(Cc2ccoc2)Cc2ncn(C)c21 (stereo not drawn) was CoaBC: 1.728%.
Result for CC(C)c1nnc2n1CCN(Cc1ncc(-c3ccccc3)o1)C2 was Toxoplasma: -4.296%; CoaBC: 3.676%.
Result for CC(=O)N1CCCCC12CCCN(Cc1ccco1)C2.O=C(O)C(F)(F)F (stereo not drawn) was Toxoplasma: 4.401%.
Result for CCc1nn(-c2cc(Oc3cc(C)ccc3C)nc(C)n2)c(N)c1C#N was Toxoplasma: 24.32%; CoaBC: 1.566%.
Result for CC(C(=O)Nc1ccon1)n1ccc(C(F)(F)F)n1 (stereo not drawn) was Toxoplasma: 18.13%; CoaBC: -2.152%.
Result for CCc1cc(=O)[nH]c(-c2ccc(NC(C)CN3CCOCC3)nc2)n1 (stereo not drawn) was Toxoplasma: -20.06%; CoaBC: 6.163%.
Result for [H][C@]12CC[C@]([H])(CN(C)C1)N(C(=O)c1ccc(-c3ccccc3OC)cc1)C2 was Toxoplasma: 20.87%.
Result for Cc1ccc(CN2CCC3(CC2)CC3CN(C)Cc2cccnc2)o1 (stereo not drawn) was CoaBC: -31.5%.
Result for CC(C)NC(=O)N1CC(=O)c2sc(Nc3ccc(C#N)cc3)nc2C1 was Toxoplasma: 4.354%; CoaBC: 4.458%.
Result for CCc1cc(NCC(O)CN2CCCCC2)n2ncnc2n1 (stereo not drawn) was Toxoplasma: 0.7541%; CoaBC: 3.914%.
Result for CCS(=O)(=O)N1CCc2c(CN(C)Cc3ccco3)cncc2C1 was CoaBC: 3.173%.
Result for O=C(O)C(F)(F)F.c1c2c(nn1CC1CC1)C(CNC1CCOCC1)OCC2 (stereo not drawn) was Toxoplasma: -12.49%.
Result for Cc1ccc(NC2CCN(C(=O)COC3CCCCC3)CC2)nn1 was Toxoplasma: -9.787%; CoaBC: -4.596%.
Result for Cc1ccc(C)c(C(O)Cn2cc(Cl)c(=O)[nH]c2=O)c1 (stereo not drawn) was Toxoplasma: -36.41%; CoaBC: -0.3984%.
Result for CCc1cn[nH]c1C1CCCN(C(=O)c2cc(C(C)C)on2)C1 (stereo not drawn) was Toxoplasma: 12.38%; CoaBC: 13.94%.
Result for Cc1ccc2c(c1)C(N(C)C)CC21CCN(CCO)CC1 (stereo not drawn) was CoaBC: -16.19%.
Result for COCCNC(=O)N1CCOCC1c1c(C)nn(C)c1C (stereo not drawn) was Toxoplasma: -13.41%; CoaBC: 0.86%.
Result for Cc1noc(C)c1CN1CCCC1c1nnc2ccccn12 (stereo not drawn) was Toxoplasma: -4.558%; CoaBC: 5.144%.
Result for [H][C@@]12CC[C@H](Oc3cccc(F)c3)[C@]1([H])CN(C(=O)c1cccc(C)n1)C2 was Toxoplasma: 3.679%.
Result for CO[C@H]1CN(S(=O)(=O)c2ccccc2F)C[C@@]12CCCO2 was Toxoplasma: -0.969%; CoaBC: 9.557%.
Result for Nc1cc2c(nn1)CCN(C(=O)CC1CCCCC1)C2 was Toxoplasma: -0.03786%; CoaBC: 4.462%.
Result for COc1c(CNC2CCCOc3ccc(F)cc32)c(C(C)C)nn1C.Cl (stereo not drawn) was Toxoplasma: -37.87%.
Result for Cc1nc(-c2ccsc2)ccc1C(=O)NCCC1CCCO1 (stereo not drawn) was Toxoplasma: -9.315%; CoaBC: -0.266%.

For reference, 5 entries once more:

{"compound": "COc1c(CNC2CCCOc3ccc(F)cc32)c(C(C)C)nn1C.Cl", "stereo": "stereo not drawn", "Toxoplasma": -37.87}
{"compound": "CC(C(=O)Nc1ccon1)n1ccc(C(F)(F)F)n1", "stereo": "stereo not drawn", "Toxoplasma": 18.13, "CoaBC": -2.152}
{"compound": "[H][C@@]12CC[C@H](Oc3cccc(F)c3)[C@]1([H])CN(C(=O)c1cccc(C)n1)C2", "Toxoplasma": 3.679}
{"compound": "CN(C)C(=O)COCC1CN(Cc2ccoc2)Cc2ncn(C)c21", "stereo": "stereo not drawn", "CoaBC": 1.728}
{"compound": "CCS(=O)(=O)CCNC(=O)c1ccc(-c2ccc(C)cc2)cc1F", "Toxoplasma": 10.25, "CoaBC": -8.636}